Data as given in PubChem BioAssay AID2685 (National Center for Advancing Translational Sciences (NCATS), 2010).
The list shows a part of the results. Shown are side measurements of this screen, not its main read-out; they come without a call. Most of these compounds were active or inconclusive in the main read-out, so they are no random draw. The note in brackets gives the kind of curve behind each potency; many fits are weak.

Test: qHTS Assay for Lipid Storage Modulators in Drosophila S3 Cells;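 as to cell number change: cells counted by Cell Tracker Red CMTPX staining in the red channel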
Conditions: BODIPY lipid droplet fluorescence, 18-24 h; for cell number change: measured here: cell count max response, cells fed with added oleic acid
Method in brief: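 Drosophila S3 cells loaded with oleic acid (400 uM, as added) and compounds at several concentrations; lipid droplets imaged by 488-nm laser-scanning cytometry, 500–530 nm intensity and object ratio to cell channel. Percent activity normalized to 20 uM Triacsin C.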

[1] = measured here: lipid fluorescence (Fed channel) AC50, cells fed with added oleic acid
[2] = measured here: cell number channel AC50, cells fed with added oleic acid

Row | SMILES | cell number change | AC50 [1] | AC50 [2]
1 | COc1ccccc1C(=O)NC(=O)Nc1cccc(Cl)c1 | -0.708% | – | –
2 | CN(CCC#N)C(=O)COC(=O)c1cc(Cl)cc(Cl)c1N | -9.06% | 0.00461 µM [falling, full curve, poor fit] | –
3 | CCc1cccc(OCC2Cn3c(nc4c3c(=O)[nH]c(=O)n4C)O2)c1 (stereo unspecified) | 14.8% | – | –
4 | COCCCNc1ncnc2c1[nH]c1ccccc12 | 7.32% | 6.51 µM [rising, single point] | –
5 | Cc1cc(S(=O)(=O)N2c3ccc(F)cc3CCC2C)ccc1-n1cnnn1 (stereo unspecified) | -24.8% | 29.1 µM [falling, single point] | –
6 | CCCN1C(=O)C2(SC(NC(C)=O)=NN2C(C)=O)c2cc(C)cc(C)c21 (stereo unspecified) | -1.87% | 29.1 µM [falling, single point] | –
7 | Nc1cccc2c1C(=O)N(CCOc1ccc(F)cc1)C2=O | 11.3% | 0.164 µM [falling, full curve, poor fit] | –
8 | O=C(/C=C/c1cccc(Br)c1)OCC(=O)N1CCN(c2ccccc2)CC1 | -2.9% | 4.11 µM [rising, single point] | –
9 | CCOC(=O)C1C(=O)NC(SC)=C(C#N)C1c1ccccc1F (stereo unspecified) | 1.25% | – | –
10 | CCN(CC)c1ccc2c(Cl)c(Br)c(=O)oc2c1 | -9.77% | 20.6 µM [falling, partial curve, poor fit] | –
11 | COc1ccc(Cc2nnc(NC(=O)CS(=O)(=O)c3ccc(C)cc3)s2)cc1OC | 17% | – | –
12 | O=C1CC(C(=O)NCCc2ccccc2)SC(=Nc2ccccc2)N1 (stereo unspecified) | -18.3% | 29.1 µM [rising, single point] | –
13 | Cc1sc(NC(=O)C2=COCCO2)c(C#N)c1C | -16% | – | –
14 | COc1ccc(NC(=O)CN(C)S(=O)(=O)c2ccc(Cl)cc2)cn1 | 8.8% | 6.51 µM [rising, single point] | –
15 | O=C(Cc1cccc2ccccc12)Nc1nnc(-c2cccc([N+](=O)[O-])c2)s1 | 14.4% | 7.31 µM [rising, partial curve] | –
16 | Cc1cc(N2CCCCC2)n2ncc(-c3ccccc3)c2n1 | -23.7% | 13 µM [falling, partial curve, poor fit] | –
17 | Cc1cc(C)c(C)c(S(=O)(=O)NNC(=O)c2cccc(S(=O)(=O)N3CCOCC3)c2)c1C | 0.235% | 14.6 µM [falling, partial curve] | –
18 | Cc1ccc(C(=O)OCC(=O)NC(=O)NCc2ccccc2)cc1C | -35.6% | 8.2 µM [falling, partial curve, poor fit] | 13 µM [falling, partial curve]
19 | Cc1sc2ncnc(N(C)Cc3cccs3)c2c1C | 46% | 16.4 µM [rising, partial curve] | 5.8 µM [rising, full curve]
20 | Cc1nc2ccc(NC(=O)c3ccc([N+](=O)[O-])cc3)cc2s1 | -34.3% | 0.92 µM [falling, full curve, poor fit] | –
21 | CCN1CCN(C(=O)Cn2c(=O)sc3ccccc32)CC1 | – | 8.2 µM [rising, partial curve] | –

Row | SMILES | cell number change | AC50 [1] | AC50 [2]
22 | Cc1cc(C(=O)COC(=O)c2cccn2C)c(C)n1Cc1ccco1 | 38.9% | 29.1 µM [rising, single point] | 3.66 µM [rising, full curve]
23 | O=C(Nc1ccc2c(c1)CCC2)C1CCN(c2c3c(nc4ncnn24)CCC3)CC1 | -10.7% | 32.6 µM [falling, single point] | –
24 | N#Cc1ccccc1NCc1ccccc1 | 2.93% | 0.116 µM [rising, full curve, poor fit] | –
25 | COc1ccc(OCC(=O)Nc2nnc(S(=O)(=O)N3CCCCCC3)s2)cc1 | -12.9% | – | –
26 | CCOC(=O)c1cc2c(=O)c3ccccc3oc2nc1C | -18.1% | 29.1 µM [falling, single point] | –
27 | O=C(CSc1ncnc2scc(-c3ccccc3)c12)N1CCN(c2ccccc2F)CC1 | -1.97% | 3.26 µM [rising, single point] | –
28 | COC(=S)Nc1cccc(C(F)(F)F)c1 | -19.4% | 6.51 µM [falling, partial curve, poor fit] | 6.51 µM [falling, single point]
29 | Cc1ccc(Cn2ccnc2C(=O)Nc2ccccc2)cc1 | 17.8% | 0.103 µM [rising, full curve, poor fit] | 0.082 µM [rising, full curve, poor fit]
30 | CC(=O)c1cccc(NC(=O)C(C)OC(=O)c2cc(=O)[nH]c3ccccc23)c1 (stereo unspecified) | -8.75% | 5.17 µM [rising, partial curve] | –
31 | Cc1ccccc1-c1nc(C#N)c(NCc2ccco2)o1 | -14% | – | –
32 | CCn1nnc(-c2ccccc2NC(=O)c2ccc(-n3cnnn3)cc2)n1 | – | 0.82 µM [rising, partial curve] | 0.651 µM [rising, partial curve]
33 | COC(=O)c1ccsc1NC(=O)CSc1nnnn1-c1ccccc1SC | 151% | 29.1 µM [rising, single point] | 1.64 µM [rising, full curve]
34 | O=C(Nc1ccccc1C(=O)Nc1ccc2c(c1)OCO2)c1ccco1 | -0.128% | 0.58 µM [rising, single point] | –
35 | COc1ccccc1C(=O)COC(=O)Cc1n[nH]c(=O)c2ccccc12 | -14.5% | – | –
36 | COc1ccccc1C(=O)Nc1ccc2c(c1)nc1n2CCSC1 | – | 0.164 µM [rising, full curve, poor fit] | –
37 | CN1CCN(NC(=O)c2cc(Br)ccc2Cl)CC1 | -10.1% | 0.164 µM [falling, full curve] | –
38 | CCC(Cc1ccccc1)NS(=O)(=O)c1ccc2c(c1)NC(=O)C(C)S2 (stereo unspecified) | – | 29.1 µM [falling, single point] | –
39 | Cn1cc(S(=O)(=O)NC2CCCCCC2)c(=O)n(C)c1=O | 6.74% | – | 4.11 µM [rising, partial curve, poor fit]
40 | COc1ccc(CCNC2CCN(C)CC2)cc1OC | 2.64% | 5.8 µM [falling, partial curve] | –
41 | CCOC(=O)N1CCN(C/C(C)=C/c2ccccc2)CC1 | 39% | – | 29.1 µM [rising, single point]
42 | CCc1ccc(OCC(O)CN2CCN(c3ccc(OC)cc3)CC2)cc1 (stereo unspecified) | -0.37% | 32.6 µM [falling, single point] | –

Three entries drawn at random from those above:
Row | SMILES | cell number change | AC50 [1] | AC50 [2]
28 | COC(=S)Nc1cccc(C(F)(F)F)c1 | -19.4% | 6.51 µM [falling, partial curve, poor fit] | 6.51 µM [falling, single point]
30 | CC(=O)c1cccc(NC(=O)C(C)OC(=O)c2cc(=O)[nH]c3ccccc23)c1 (stereo unspecified) | -8.75% | 5.17 µM [rising, partial curve] | –
31 | Cc1ccccc1-c1nc(C#N)c(NCc2ccco2)o1 | -14% | – | –

Continuation.

Row | SMILES | cell number change | AC50 [1] | AC50 [2]
43 | CC(=O)NC1CC2CCCC(C1)N2S(=O)(=O)c1ccccc1 (stereo unspecified) | 33.1% | 0.231 µM [rising, full curve, poor fit] | 25.9 µM [rising, single point]
44 | CCCCCOc1ccc(NC(=O)C(=O)NCCCn2ccnc2)cc1 | 7.82% | 2.31 µM [falling, partial curve, poor fit] | –
45 | CC(C)(C)NS(=O)(=O)c1cc(C(=O)O)ccc1Cl | -48.2% | 29.1 µM [falling, single point] | 29.1 µM [falling, single point]
46 | COC(=O)c1cccc(NC(=O)C2CCCN2C(=O)c2cccs2)c1 (stereo unspecified) | -99.1% | – | 29.1 µM [falling, single point]
47 | CC(C)(C)c1ccc(C(=O)N2CCN(c3nc4ccccc4o3)CC2)cc1 | -32.1% | 0.92 µM [falling, full curve, poor fit] | 9.2 µM [falling, partial curve]
48 | COc1ccc(/C=N/NC(=O)c2ccc(COc3cccc4cccnc34)cc2)cc1OC | – | 0.146 µM [rising, partial curve, poor fit] | –
49 | O=[N+]([O-])c1ccc(Cl)c(/C=N/N2CCN(Cc3ccccc3Cl)CC2)c1 | -11.1% | 0.259 µM [rising, full curve, poor fit] | –
50 | COc1ccccc1Sc1ccccc1/C=N/NC(N)=O | 18.6% | – | –
51 | Cn1c(CCCOc2ccc(Cl)cc2Cl)nnc1SCC(=O)Nc1nccs1 | -25.3% | 29.1 µM [falling, partial curve] | –
52 | Cc1n[nH]c(C)c1CCCOc1ccccc1 | 75.4% | 13 µM [rising, partial curve] | 3.66 µM [rising, full curve]
53 | COc1ccc(C)cc1NC(=O)C1CCCN1S(=O)(=O)c1ccc2c(c1)CCC(=O)N2 (stereo unspecified) | -1.39% | 0.13 µM [rising, full curve, poor fit] | –
54 | Cc1c(N(C)C(=O)COc2ccc3ccccc3c2)c(=O)n(-c2ccccc2)n1C | 52.4% | – | 0.082 µM [rising, full curve, poor fit]
55 | Cc1ccc(-c2nc3ccccc3n3c(C)nnc23)cc1 | -90.6% | 1.84 µM [rising, single point] | 29.1 µM [falling, single point]
56 | COc1cccc(N2C(=O)c3cccnc3C2O)c1 (stereo unspecified) | -9.33% | – | –
57 | COc1ccccc1CCNS(=O)(=O)CCNC(=O)c1ccc2c(c1)OCO2 | -8.33% | 0.092 µM [falling, full curve, poor fit] | –
58 | O=c1c(C/C=C/c2ccccc2)c(O)ccn1CCc1c[nH]c2ccccc12 | -62% | 15.8 µM [falling, partial curve] | 11.2 µM [falling, partial curve]
59 | CCOc1ccc2cc(C#N)c(SCC(=O)N3CCC(C)CC3)nc2c1 | 37.5% | 3.66 µM [rising, partial curve] | 3.26 µM [rising, single point]
60 | COc1ccccc1CNC(=O)C1CCN(c2ncnc3c2nc2n3CCCCC2)CC1 | – | 1.03 µM [rising, full curve, poor fit] | –
61 | CCCc1nc2sc(C(=O)OCC)c(N)c2c2c1COC(C)(C)C2 | 9.85% | 6.51 µM [rising, single point] | 0.184 µM [rising, partial curve]

Part of the list above, limited to AC50 [1] and cell number change.

| Row | SMILES | AC50 [1] | cell number change |
| --- | --- | --- | --- |
| 43 | CC(=O)NC1CC2CCCC(C1)N2S(=O)(=O)c1ccccc1 (stereo unspecified) | 0.231 µM [rising, full curve, poor fit] | 33.1% |
| 50 | COc1ccccc1Sc1ccccc1/C=N/NC(N)=O | – | 18.6% |
